Results published in paper PMC7819943, “Rice protein-binding microarrays: a tool to detect cis-acting elements near promoter regions in rice”.
This is one part of the list.

By UniProt entry, the sequences of proteins in these tests, tags left out.
UniProt Q0JBA9, entry or part of it: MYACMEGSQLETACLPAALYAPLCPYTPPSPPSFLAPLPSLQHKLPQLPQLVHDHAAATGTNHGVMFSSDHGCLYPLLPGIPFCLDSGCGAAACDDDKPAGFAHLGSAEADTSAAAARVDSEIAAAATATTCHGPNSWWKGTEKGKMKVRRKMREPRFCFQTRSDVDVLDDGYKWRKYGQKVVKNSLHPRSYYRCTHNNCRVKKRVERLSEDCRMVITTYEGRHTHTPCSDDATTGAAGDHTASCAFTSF

Biological target: OsWRKY34 (Oryza sativa, UniProt Q0JBA9 1-250)
Test: protein-binding microarray (RPBM); PBS, 2% BSA, 51.3 ng/ul salmon testes DNA, 50 uM zinc acetate, 200 nM TF, 25 C, 1 h; high values mean tight binding
Conditions: protein: recombinant; tags: N-terminal polyhistidine and DsRed monomer fusion (pET32a); label: CyDye5-dUTP incorporated in the synthesized complementary strand; 3' TTTTT single-stranded linker to array surface; dsDNA, one strand shown
Procedure, shortened: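 Binding signal is defined as the fluorescence intensity of each feature in arbitrary units, read on an Axon 4000B scanner. Transcription factors with N-terminal polyhistidine and DsRed fusions came from E. coli BL21-CodonPlus and were purified on Ni–NTA. They were incubated at 200 nM for 1 h at 25 °C on a custom Agilent array that had been made double-stranded with Cy5-dUTP, with 50 µM zinc acetate present, and the array was washed.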

| Sequence | binding signal |
| --- | --- |
| TGGCGTCGCGTCTTTTGGGGATATATTGGGAGTGTATAGTCGGAGTCACCTAGTGCAG | 8590 fluorescence intensity (a.u.) |
| ACACACGAGGAGATGCCGCTTTATTGTTGACATGTCATTTCGGAGTCACCTAGTGCAG | 10100 fluorescence intensity (a.u.) |
| TCATTTCTGTGTGTGTTTTGGAGGTGGGTGAGGGTCTGTTCGGAGTCACCTAGTGCAG | 9920 fluorescence intensity (a.u.) |
| ATTTCGGCTGTGTTCGTTTGGACGTTTTCCCGTCGCGCTACGGAGTCACCTAGTGCAG | 8030 fluorescence intensity (a.u.) |
| CACCCGTCATCATCACTCTCGCCGCGCTGTCCGCTTCTCGCGGAGTCACCTAGTGCAG | 11700 fluorescence intensity (a.u.) |
| ATTCCTATGTTTTCTCGTTCCTGCTATTCAATGAGGCCCTCGGAGTCACCTAGTGCAG | 8960 fluorescence intensity (a.u.) |
| TGATTCCACGCGAGTCGTCTTCTTCTTCTTCTTCTTCTTCCGGAGTCACCTAGTGCAG | 8700 fluorescence intensity (a.u.) |
| AATTTGACATACTTTCTTAATACCTAGAGTCTAATTTTTTCGGAGTCACCTAGTGCAG | 8320 fluorescence intensity (a.u.) |
| CATCATGTGCCTTTATCTCTTTTAATTTCTATGTTTTTCTCGGAGTCACCTAGTGCAG | 9740 fluorescence intensity (a.u.) |
| GCAGCAGATTCCTTGCGTCTCCCGATCCGCGCAAAGCGGCCGGAGTCACCTAGTGCAG | 8400 fluorescence intensity (a.u.) |
| CTTGGTTCGATTTGAGATCTTGATAGACTGTGGCGGCGATCGGAGTCACCTAGTGCAG | 8380 fluorescence intensity (a.u.) |
| TTCCCACCCCGCTCGTCGGCCTCCCTACTAACTTCAGCTTCGGAGTCACCTAGTGCAG | 8540 fluorescence intensity (a.u.) |
| TATGCCTATAAATTCAAGCTTATTGTTTCATTTTTTATGCCGGAGTCACCTAGTGCAG | 8350 fluorescence intensity (a.u.) |
| TTTTCTTCTGCTTTCTGAAATTAAGTGTTTCGTGTCATGTCGGAGTCACCTAGTGCAG | 9160 fluorescence intensity (a.u.) |
| TCCATTGTATCTGTACCGCCTCCGCCTCCCCATCGCGCAGCGGAGTCACCTAGTGCAG | 8470 fluorescence intensity (a.u.) |
| TCTTGCCATCTAGATCTCAGGATATTGCTCCACCTAAACTCGGAGTCACCTAGTGCAG | 13100 fluorescence intensity (a.u.) |
| GCTCGTCCGCGACCGCCGCCGCCGCCGCCACCTCTACCACCGGAGTCACCTAGTGCAG | 8460 fluorescence intensity (a.u.) |
| CCTCTCCCTACTACTGTCGTATCGTCTCCTACCTCGCCTCCGGAGTCACCTAGTGCAG | 8340 fluorescence intensity (a.u.) |
| TCGCAATTTACATACAAACCGTGCAATTGGTTTTTTCGTCCGGAGTCACCTAGTGCAG | 9900 fluorescence intensity (a.u.) |
| TGTCACATTCCAGTCCATGCCCTCTCCCAGATCGACTTGTCGGAGTCACCTAGTGCAG | 8950 fluorescence intensity (a.u.) |
| AACGATTTGCATGTCATACAGATACATCACATTTCTTTCTCGGAGTCACCTAGTGCAG | 8520 fluorescence intensity (a.u.) |

Given tab-delimited: part of the list above
Sequence	binding signal
TGATTCCACGCGAGTCGTCTTCTTCTTCTTCTTCTTCTTCCGGAGTCACCTAGTGCAG	8700 fluorescence intensity (a.u.)
AATTTGACATACTTTCTTAATACCTAGAGTCTAATTTTTTCGGAGTCACCTAGTGCAG	8320 fluorescence intensity (a.u.)

Further entries

| Sequence | binding signal |
| --- | --- |
| CCTCCACCCCACCACCACCACCACCTCGCCGCCGACGTCGCGGAGTCACCTAGTGCAG | 10100 fluorescence intensity (a.u.) |
| TACACCACCCTTTCATCTACTTGCATGGTTGCACCACTATCGGAGTCACCTAGTGCAG | 10200 fluorescence intensity (a.u.) |
| GGGGTTGCGGAAGAGGTGGAGGCTGCGGCGGACATCGTCGCGGAGTCACCTAGTGCAG | 8120 fluorescence intensity (a.u.) |
| ATCCTCTTCTTCCTCTCCGGCCGCCTCCTTCCTCACCATGCGGAGTCACCTAGTGCAG | 10800 fluorescence intensity (a.u.) |
| ATGCACCAACCGATCCAGTCCAGAGACATCCACACATTCGCGGAGTCACCTAGTGCAG | 8410 fluorescence intensity (a.u.) |
| CATGTTCTTTTTTTTTACATAGAGTAATATTTGGTTTGTACGGAGTCACCTAGTGCAG | 8500 fluorescence intensity (a.u.) |
| TTTTCTTCTTTTTTTCTTATTTATTCACTTGCCACATTATCGGAGTCACCTAGTGCAG | 10400 fluorescence intensity (a.u.) |
| CCTCAATCCACGCACGTTAGCAATAGGGTTCTTTCATTTTCGGAGTCACCTAGTGCAG | 8580 fluorescence intensity (a.u.) |
| GCAAACATGCCACCTCATCATCCACTAGCAATAATTACATCGGAGTCACCTAGTGCAG | 8440 fluorescence intensity (a.u.) |
| TTTTCTTTCTCCCGTGCCTGTTCTTTTCTTTCTTGCAAGCCGGAGTCACCTAGTGCAG | 9300 fluorescence intensity (a.u.) |
| TGTTCATCTCTGCACCACCATTAGCTAGTTGGTTTCTCGACGGAGTCACCTAGTGCAG | 10000 fluorescence intensity (a.u.) |
| CGGTCGTACTCCGTCCTGCATCCACCCAACACAAACCAATCGGAGTCACCTAGTGCAG | 9830 fluorescence intensity (a.u.) |
| CCCCACCCCACTACTCCTCTCCACCGCCATCATTGTCGGCCGGAGTCACCTAGTGCAG | 9210 fluorescence intensity (a.u.) |
| GATCGCTCCATAAACATGCAATATATCAATTTTAACTTTTCGGAGTCACCTAGTGCAG | 8900 fluorescence intensity (a.u.) |
| ATCGACATGTTCCGCTCACCGTGGGTTCTATCAAGGCCTACGGAGTCACCTAGTGCAG | 8030 fluorescence intensity (a.u.) |
| GCCTGCCTGTCTGCCTCCGCGTCTTTTCTGCTGCCCACATCGGAGTCACCTAGTGCAG | 19500 fluorescence intensity (a.u.) |
| CCTTCTCGTCCATTTTCCCACTACACCACAAAATCCAGGTCGGAGTCACCTAGTGCAG | 9300 fluorescence intensity (a.u.) |
| CGCAGTCCGAAGTTGATTTTTTTTTTTTTTACGGAGTACTCGGAGTCACCTAGTGCAG | 8250 fluorescence intensity (a.u.) |
| TTTTGCTTTCTACATAATTGTGTGCCATTAATTTTATTTTCGGAGTCACCTAGTGCAG | 9200 fluorescence intensity (a.u.) |
| CCGGCTCAGTGTTCTGGAGGGGTAGGGTGTGCGTTCATAGCGGAGTCACCTAGTGCAG | 13000 fluorescence intensity (a.u.) |
| ACTCGATCCAAACACAAGAAGTTCCATGCATGTTAATCGACGGAGTCACCTAGTGCAG | 8570 fluorescence intensity (a.u.) |
